Results are given in words; binding and its absence hold for the method and conditions named. Some binding calls cover weakened binding; strength is not graded here.
B1: SYPKFID (extension array peptide) (peptide)
peptide: SYPKFID
B2: YPYFKPAS (extension array peptide) (peptide)
peptide: YPYFKPAS
B3: YPYFKPA (extension array peptide) (peptide)
peptide: YPYFKPA
B4: YPTFKPA (extension array peptide) (peptide)
peptide: YPTFKPA
B5: QYPYFKPA (extension array peptide) (peptide)
peptide: QYPYFKPA
B6: DYPKFIS (extension array peptide) (peptide)
peptide: DYPKFIS
B7: DYPKFLP (extension array peptide) (peptide)
peptide: DYPKFLP
B8: … (extension array peptide) (peptide)
peptide: TGARFIPAN
B9: ARFIP core motif (5-mer array peptide) (peptide)
peptide: ARFIP
B10: … (substitution/deletion array peptide) (peptide)
peptide: GDYPKFIPAS
B11: … (substitution/deletion array peptide) (peptide)
peptide: QQYPYFKPAN
B12: … (substitution/deletion array peptide) (peptide)
peptide: GDYPKFISAN
B13: … (substitution/deletion array peptide) (peptide)
peptide: STGARFIPAN
B14: … (substitution/deletion array peptide) (peptide)
peptide: YPTFKPANGS
B15: … (substitution/deletion array peptide) (peptide)
peptide: GSYPKFIDAN

Amino acid sequences for entries named in this document (tags omitted). Residues count along the entry.
UniProt P56817, residues 46-460: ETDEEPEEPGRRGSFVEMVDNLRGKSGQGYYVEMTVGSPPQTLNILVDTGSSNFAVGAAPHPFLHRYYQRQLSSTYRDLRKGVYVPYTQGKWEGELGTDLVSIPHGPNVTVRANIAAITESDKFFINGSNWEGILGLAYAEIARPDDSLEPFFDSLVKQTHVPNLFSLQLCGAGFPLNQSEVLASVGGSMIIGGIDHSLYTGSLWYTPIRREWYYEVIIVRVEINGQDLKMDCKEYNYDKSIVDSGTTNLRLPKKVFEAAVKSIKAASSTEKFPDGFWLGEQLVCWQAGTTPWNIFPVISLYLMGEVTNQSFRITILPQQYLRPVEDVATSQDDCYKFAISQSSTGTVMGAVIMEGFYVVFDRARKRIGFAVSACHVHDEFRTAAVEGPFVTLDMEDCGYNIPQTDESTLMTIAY

target: BACE1 enzyme (WT1-13-2), biotinylated (UniProt P56817); test: extension peptide array, biotinylated BACE1 detected with streptavidin-Cy5; the words stand in paragraph 147, the sequence in the table

binding, binds:
B1
B2
B3
B4
B5
B6
B7
B8

target: BACE1 enzyme (WT1-13-2), biotinylated (UniProt P56817); test: extension peptide array, biotinylated BACE1 detected with streptavidin-Cy5

binding, binds:
B1
B6
B7

target: BACE1 enzyme (WT1-13-2), biotinylated (UniProt P56817); test: 5-mer peptide array, biotinylated BACE1 detected with streptavidin-Cy5; the words stand in paragraph 143, the motif in the table

binding, binds:
B9

target: BACE1 enzyme (WT1-13-2), biotinylated (UniProt P56817); test: double substitution/deletion peptide array, biotinylated BACE1 detected with streptavidin-Cy5; the words stand in paragraph 151, the sequence in the table

binding, binds:
B10
B11
B12
B13
B14
B15
